The source of these data is the supplement of paper PMC10849652.

Protein sequences, listed by entry. Tags and fused reporters are not part of them. Lines headed by an entry give the natural chain unless they say otherwise; changes in a name come on top.
UniProt H7BZJ3: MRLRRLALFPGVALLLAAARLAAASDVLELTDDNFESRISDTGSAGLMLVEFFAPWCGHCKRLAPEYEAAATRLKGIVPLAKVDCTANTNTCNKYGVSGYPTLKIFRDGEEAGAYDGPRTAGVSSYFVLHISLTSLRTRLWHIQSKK
UniProt P51160: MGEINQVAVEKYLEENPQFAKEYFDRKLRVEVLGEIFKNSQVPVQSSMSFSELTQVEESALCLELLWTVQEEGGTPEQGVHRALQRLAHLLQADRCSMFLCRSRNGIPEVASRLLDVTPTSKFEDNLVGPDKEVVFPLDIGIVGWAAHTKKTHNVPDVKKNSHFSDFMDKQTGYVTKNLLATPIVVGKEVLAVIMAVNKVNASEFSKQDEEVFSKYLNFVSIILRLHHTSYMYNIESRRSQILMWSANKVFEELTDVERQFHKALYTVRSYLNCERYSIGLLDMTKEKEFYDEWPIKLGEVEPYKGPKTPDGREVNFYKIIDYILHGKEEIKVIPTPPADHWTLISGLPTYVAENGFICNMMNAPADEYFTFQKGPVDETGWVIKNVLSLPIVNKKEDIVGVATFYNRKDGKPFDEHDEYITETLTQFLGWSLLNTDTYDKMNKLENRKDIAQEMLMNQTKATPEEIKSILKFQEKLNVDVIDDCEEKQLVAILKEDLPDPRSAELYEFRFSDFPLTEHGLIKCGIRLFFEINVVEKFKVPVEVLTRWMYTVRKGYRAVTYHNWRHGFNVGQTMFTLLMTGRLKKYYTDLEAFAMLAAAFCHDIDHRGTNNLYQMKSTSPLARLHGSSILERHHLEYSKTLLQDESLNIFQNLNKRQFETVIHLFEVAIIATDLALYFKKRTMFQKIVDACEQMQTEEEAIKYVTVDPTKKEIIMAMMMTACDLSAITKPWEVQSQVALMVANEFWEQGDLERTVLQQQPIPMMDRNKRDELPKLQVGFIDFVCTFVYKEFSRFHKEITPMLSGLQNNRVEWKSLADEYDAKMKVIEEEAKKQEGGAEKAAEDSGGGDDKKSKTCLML
UniProt O96013: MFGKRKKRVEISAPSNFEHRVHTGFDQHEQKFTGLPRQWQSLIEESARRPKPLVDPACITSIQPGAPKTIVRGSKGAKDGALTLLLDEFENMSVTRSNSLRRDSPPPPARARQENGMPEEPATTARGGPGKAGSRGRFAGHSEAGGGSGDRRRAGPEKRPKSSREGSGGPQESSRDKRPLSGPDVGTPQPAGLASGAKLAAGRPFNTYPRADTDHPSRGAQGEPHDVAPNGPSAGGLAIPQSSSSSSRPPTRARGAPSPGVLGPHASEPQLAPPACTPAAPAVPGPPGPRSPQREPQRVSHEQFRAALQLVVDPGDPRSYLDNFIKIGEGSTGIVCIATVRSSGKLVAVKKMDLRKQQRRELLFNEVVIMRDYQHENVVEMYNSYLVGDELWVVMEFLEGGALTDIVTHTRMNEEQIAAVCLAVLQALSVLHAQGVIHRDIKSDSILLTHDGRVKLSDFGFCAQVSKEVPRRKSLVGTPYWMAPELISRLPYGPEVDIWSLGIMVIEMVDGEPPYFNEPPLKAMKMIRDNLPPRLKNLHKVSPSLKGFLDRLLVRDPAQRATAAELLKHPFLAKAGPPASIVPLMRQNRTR
UniProt Q86SE9: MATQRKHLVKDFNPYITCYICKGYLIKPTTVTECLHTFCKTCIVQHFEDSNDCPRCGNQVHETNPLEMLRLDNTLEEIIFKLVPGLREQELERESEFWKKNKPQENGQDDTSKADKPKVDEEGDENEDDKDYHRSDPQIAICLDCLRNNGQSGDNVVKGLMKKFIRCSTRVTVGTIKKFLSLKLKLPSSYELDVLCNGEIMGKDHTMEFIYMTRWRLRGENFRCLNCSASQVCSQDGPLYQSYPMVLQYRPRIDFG
UniProt Q86W56: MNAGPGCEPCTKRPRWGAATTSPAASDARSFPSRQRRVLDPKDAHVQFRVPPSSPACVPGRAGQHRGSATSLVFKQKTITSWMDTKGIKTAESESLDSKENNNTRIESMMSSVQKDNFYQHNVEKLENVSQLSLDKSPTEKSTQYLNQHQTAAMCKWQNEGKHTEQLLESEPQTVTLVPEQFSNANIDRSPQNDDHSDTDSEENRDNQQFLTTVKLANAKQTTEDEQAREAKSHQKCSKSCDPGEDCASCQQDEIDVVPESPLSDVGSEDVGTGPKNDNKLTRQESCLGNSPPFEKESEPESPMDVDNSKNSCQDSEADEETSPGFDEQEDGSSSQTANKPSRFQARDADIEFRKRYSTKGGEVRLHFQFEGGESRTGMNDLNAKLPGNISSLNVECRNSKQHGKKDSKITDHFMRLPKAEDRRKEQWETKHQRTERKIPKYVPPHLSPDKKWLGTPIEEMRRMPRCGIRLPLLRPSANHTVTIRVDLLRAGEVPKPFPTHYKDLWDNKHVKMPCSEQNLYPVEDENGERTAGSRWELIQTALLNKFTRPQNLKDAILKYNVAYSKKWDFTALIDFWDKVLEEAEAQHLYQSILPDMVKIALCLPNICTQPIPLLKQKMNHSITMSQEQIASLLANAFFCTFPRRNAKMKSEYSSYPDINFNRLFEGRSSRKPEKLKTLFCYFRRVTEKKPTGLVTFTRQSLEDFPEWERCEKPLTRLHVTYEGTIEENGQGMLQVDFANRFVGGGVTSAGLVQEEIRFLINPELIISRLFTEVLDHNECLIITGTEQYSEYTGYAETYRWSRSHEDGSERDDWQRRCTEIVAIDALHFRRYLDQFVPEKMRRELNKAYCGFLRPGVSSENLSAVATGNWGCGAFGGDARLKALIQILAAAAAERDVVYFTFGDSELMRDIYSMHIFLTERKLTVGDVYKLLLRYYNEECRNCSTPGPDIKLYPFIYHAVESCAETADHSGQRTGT
UniProt Q7Z2X7: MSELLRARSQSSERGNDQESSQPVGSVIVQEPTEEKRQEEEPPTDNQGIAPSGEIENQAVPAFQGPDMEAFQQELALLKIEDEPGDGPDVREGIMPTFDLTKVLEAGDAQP

Assay in all cases: log2 fold change, soluble protein after heating vs DMSO (PISA); higher = thermal stabilisation; K562 cells, 10 uM, 30 min; active = over 0.2 and 3.5 SD of the protein, either way, in both replicates (recomputed)
Compound in one assay: C1COCCN1CCN2C3=CC=CC=C3N=C2NC(=O)C4=CC(=CC=C4)[N+](=O)[O-] [IRAK-1-4 Inhibitor I]
In short, it runs like this: (§1)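 K562 cells at 2×10^6 cells/mL were treated for 30 min with 10 μM compound, and aliquots were heated for 3 min over 48°C-58°C before pooling. Extraction used PBS with 0.5% NP-40 at 4°C, and soluble protein was the supernatant after 21,000xg for 90 min, measured by TMTpro 16plex LC-MS/MS with channel sums equalised. Thermal stability values, relative to control samples and from duplicates, are log2 fold changes.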

Compound in another assay: C=CC(=O)N1CCC[C@@H](n2nc(-c3ccc(Oc4ccccc4)cc3)c3c(N)ncnc32)C1 [ibrutinib]
In short, it runs like this: as §1

Compound in assay [1]: CC(=O)c1cnc2ccc(-c3cc(Cl)c(O)c(Cl)c3)nc2c1N[C@H]1CC[C@H](CN(C)C)CC1
In a few lines: as §1

Compound in assay [2]: CC(C)(O)CC(=O)NCCn1ccc2ncnc(Nc3ccc(Oc4cccc(C(F)(F)F)c4)c(Cl)c3)c21
In short, it runs like this:
as §1

Compound in assay [3]: CC(C)C1=C2N=C(C=C(N2N=C1)NCC3=CC=CC=C3)NCCCCCCN
In short, it runs like this: as §1

Compound in another assay: CC(C)N(C[C@H]1O[C@@H](n2cnc3c(N)ncnc32)[C@H](O)[C@@H]1O)[C@H]1C[C@@H](CCc2nc3cc(C(C)(C)C)ccc3[nH]2)C1 [pinometostat]
In short, it runs like this: as §1

Compound in assay [4]: CC1=C(C(CC(=O)N1)C2=CC=C(C=C2)C(F)(F)F)C(=O)NC3=C(C=C4C(=C3)C=NN4)F
In a few lines:
as §1

Compound in assay [5]: CC1=C(C2=C(C=C1)C(=O)C3=CC=CC=C3N2CCCN)C
In short, it runs like this:
as §1

Compound in assay [6]: CC1=C(C=C(C=C1)NC(=O)C2=CC(=CC=C2)C(C)(C)C#N)NC3=CC4=C(C=C3)N=CN(C4=O)C
In a few lines:
as §1

Compound in assay [7]: CC1=CC=C(C=C1)SC2=C3C=C(SC3=CN=C2)C(=O)N
In a few lines:
as §1

Compound in assay [8]: CC1=NC(=CC=C1)C2=C(N=C(N2)C(C)(C)C)C3=CC4=NC=CN=C4C=C3
In a few lines:
as §1

Compound in the next assay: CCCCN(Cc1ccc(C(=O)NO)cc1)C(=O)Nc1ccccc1 [Nexturastat A]
In a few lines: as §1

Compound in the next assay: CCCS(=O)(=O)Nc1ccc(F)c(C(=O)c2c[nH]c3ncc(-c4ccc(Cl)cc4)cc23)c1F [vemurafenib]
In short, it runs like this:
as §1

Compound in assay [9]: CCCS(=O)(=O)Nc1ccc(F)c(C(=O)c2c[nH]c3ncc(Cl)cc23)c1F
In short, it runs like this:
as §1

Compound in assay [10]: CCCc1cc(C)[nH]c(=O)c1CNC(=O)c1cc(-c2ccnc(N3CCN(C)CC3)c2)cc2c1cnn2C(C)C
In a few lines:
as §1

Compound in another assay: CCN(CC)Cc1ccc2cc(COC(=O)Nc3ccc(C(=O)NO)cc3)ccc2c1 [givinostat]
In short, it runs like this: as §1

Compound in the next assay: CCN(CCCOc1ccc2c(Nc3cc(CC(=O)Nc4cccc(F)c4)[nH]n3)ncnc2c1)CCOP(=O)(O)O [barasertib]
In a few lines: as §1

Compound in the next assay: CC(C)(C)Cn1c(N)nc2ccc(-c3[nH]c(C(C)(C)C)nc3-c3ccc(F)cc3)nc21 [ralimetinib]
In a few lines:
as §1

Compound in assay [11]: CC(C)C[C@@H](C=O)NC(=O)[C@H](CC(C)C)NC(=O)[C@H](CC(C)C)NC(=O)OCc1ccccc1
In a few lines: as §1

Compound in assay [12]: CC1=C(C=C(C=C1)NC(=O)C2=CC(=CC=C2)N(C)C)NC(=O)C3=CC=C(C=C3)O
In short, it runs like this: as §1

This is one part of the list. Residues, ends and D or L forms follow the SMILES beside them. *: point of attachment. Cbz = O=C(OCc1ccccc1)*

On to PDIA3 (UniProt H7BZJ3), for which the log2 fold change in the assay with IRAK-1-4 Inhibitor I was inactive: -0.045; with ibrutinib, inactive: -0.023; in [1], inactive: -0.014; in assay [2], inactive: 0.124; in assay [3] it was inactive: 0.006; in the assay with pinometostat it was inactive: 0.026. The log2 fold change was inactive: -0.042 in assay [4]; inactive: 0.174 in assay [5]; inactive: -0.16 in assay [6]; inactive: -0.129 in assay [7]; inactive: -0.175 in assay [8]; inactive: 0.091 in the assay with Nexturastat A. Moreover, the log2 fold change is inactive: -0.184 with vemurafenib; inactive: -0.222 in assay [9]; inactive: 0.024 in assay [10]; inactive: 0.123 with givinostat; inactive: 0.033 with barasertib.

In the case of PDE6C (UniProt P51160), the log2 fold change with IRAK-1-4 Inhibitor I is inactive: -0.072; with ibrutinib it was inactive: -0.163; in assay [1] it was inactive: -0.091; in the assay with ralimetinib it was inactive: 0; in assay [11], inactive: -0.049; with pinometostat it was inactive: 0.026. The log2 fold change in [4] is inactive: 0.067; in assay [5], inactive: 0.024; in [6], inactive: -0.001; in assay [12] it was inactive: 0.058; in [7], inactive: 0.008; in assay [8], inactive: 0.171. Besides, the log2 fold change in the assay with vemurafenib was inactive: 0.007; in [9], inactive: 0.052; in assay [10] it was inactive: -0.201; with barasertib it was inactive: -0.028.

Consider PAK4 (UniProt O96013), for which the log2 fold change was inactive: 0.038 with IRAK-1-4 Inhibitor I; inactive: -0.032 with ibrutinib; inactive: 0.173 in assay [1]; inactive: -0.084 with ralimetinib; inactive: 0 in assay [2]; inactive: 0.015 in assay [3]. For the same target, the log2 fold change is inactive: 0.07 in [11]; inactive: 0.016 with pinometostat; inactive: 0.049 in assay [5]; inactive: -0.154 in assay [6]; inactive: 0.06 in assay [12]; inactive: -0.017 in assay [7]. Also, the log2 fold change in assay [8] is inactive: -0.017; in the assay with Nexturastat A, inactive: -0.027; with vemurafenib, inactive: -0.035; in assay [9], inactive: -0.026; in [10] it was inactive: -0.141; with givinostat, inactive: -0.01. Also, the log2 fold change in the assay with barasertib is inactive: 0.027.

Take PCGF5 (UniProt Q86SE9): the log2 fold change with IRAK-1-4 Inhibitor I is inactive: -0.005; in the assay with ibrutinib it was inactive: 0.089; with ralimetinib, inactive: 0.016; in [2], inactive: 0.156; in assay [11], inactive: -0.171; with pinometostat it was inactive: 0.098. In addition, the log2 fold change in assay [6] is inactive: -0.103; in assay [12], inactive: -0.102; in assay [8] it was inactive: -0.21; in the assay with Nexturastat A, inactive: -0.129; in the assay with barasertib, inactive: 0.063.

As for PARG (UniProt Q86W56), the log2 fold change in the assay with IRAK-1-4 Inhibitor I is inactive: -0.047; with ibrutinib it was inactive: -0.022; in [1], inactive: -0.124; in the assay with ralimetinib, inactive: 0.045; in [2], inactive: -0.075; in [3], inactive: -0.203. Further, the log2 fold change in assay [11] was inactive: 0.043; with pinometostat, inactive: 0.059; in assay [5], active: 0.331; in assay [6], inactive: 0.126; in [12], inactive: -0.064; in [7] it was inactive: -0.008. In addition, the log2 fold change in assay [8] is inactive: 0.025; with Nexturastat A it was inactive: 0.018; with vemurafenib, inactive: 0.087; in assay [9], inactive: -0.006; in assay [10], inactive: -0.003; in the assay with givinostat, inactive: 0.107. Further, the log2 fold change in the assay with barasertib was inactive: 0.07.

With PAGE2 (UniProt Q7Z2X7), the log2 fold change is inactive: 0.072 with IRAK-1-4 Inhibitor I; inactive: 0 in the assay with ibrutinib; inactive: -0.13 in assay [1]; inactive: -0.171 in [2]; inactive: 0.091 in [3]; inactive: -0.006 with pinometostat. Besides, the log2 fold change is inactive: 0.049 in assay [4]; inactive: 0.232 in [5]; inactive: -0.054 in [6]; inactive: 0.014 in assay [7]; inactive: -0.025 in assay [8]; inactive: -0.003 with Nexturastat A. For the same target, the log2 fold change with vemurafenib is inactive: 0.175; in assay [9], inactive: -0.02; in assay [10], inactive: -0.011; with givinostat, inactive: -0.061; in the assay with barasertib, inactive: 0.128.
